Reference: publication doi:10.1101/2025.10.22.683813 (bioRxiv, 2025)
No constants are given. Whether binding was seen depends on the method and setting. Some binding calls cover weakened binding; strength is not graded here.

What was measured:
spNC-4-GI N-fragment = test: co-purification by metal-ion affinity chromatography, with SDS-PAGE
spNC-4-ABD N-fragment = test: as above
spNC-4 N-fragment [1] = test: as above
spNC-4 N-fragment [2] = test: cryo-EM structure

Measured: binding

B1: spNC-4 C-fragment (domain or fragment)
chain: MGIEIYEGKLTAEGLRFGIVASRFNHTLVDRLVEGAIDCIVRHGGRGEDITLVRVPGAWEIPVAADELARKEDIDAVIAFGDLIRG
binds: all assays above
